Results are given in words; binding and its absence hold for the method and conditions named. Some results given as binding are weak or reduced against the parent protein; the word gives no strength.
Key:
[1] = molecular target: full-length human APP 695 on transfected APP-null mouse fibroblasts (human) (UniProt P05067); test: confocal microscopy of cells labelled with biotinylated peptide and fluorescent streptavidin; competition: APP-expressing cells treated with 2-fold excess unbiotinylated P4 or P8 for 5 min, then with biotinylated peptides in the usual way; only the binder purified
[2] = molecular target: full-length human APP 695 on transfected APP-null mouse fibroblasts (human) (UniProt P05067); test: confocal microscopy of cells labelled with biotinylated peptide and fluorescent streptavidin; competition: biotinylated peptides first treated with purified APPs (5 uM), then added to APP-expressing cells in the usual way; only the binder purified
[3] = molecular target: full-length human APP 695 on transfected APP-null mouse fibroblasts (human) (UniProt P05067); test: confocal microscopy of cells labelled with biotinylated peptide and fluorescent streptavidin; APP-/- mouse fibroblasts transfected with APP695 (untransfected cells as control); biotinylated peptide 0.5-2 uM in ice-cold medium for 5 min, washed, fixed, Alexa Fluor 488 streptavidin; only the binder purified

Measured: binding

RRSLGHPEPLSNGRP (biotin at the NH2-terminus) [biotinylated peptide P4 (residues 41-55 of PS-1)]
binds: all assays above

DEEEDEEL (biotin at the NH2-terminus) [biotinylated peptide P8 (residues 66-73 of PS-1)]
binds: all assays above

Reference: publication PMC4414571, “Peptides of Presenilin-1 Bind the Amyloid Precursor Protein Ectodomain and Offer a Novel and Specific Therapeutic Approach to Reduce ß-Amyloid in Alzheimer’s Disease” (PLoS ONE, 2015)
